# Measured values as given in PubChem BioAssay AID2685 (National Center for Advancing Translational Sciences (NCATS), 2010).
# This is one part of the list. The main result of the screen is listed elsewhere. These columns were measured beside it and carry no call. Most of these compounds were active or inconclusive in the main read-out, so they are no random draw. Potencies come from curve fits of mixed quality, noted in brackets.
# Assay: qHTS Assay for Lipid Storage Modulators in Drosophila S3 Cells;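 for cell number change: cells counted by Cell Tracker Red CMTPX staining in the red channel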
# Settings: BODIPY lipid droplet fluorescence, 18-24 h; for cell number change: measured here: cell count max response, cells fed with added oleic acid
# Outline: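 Drosophila S3 cells loaded with oleic acid (400 uM, as added) and compounds at several concentrations; lipid droplets imaged by 488-nm laser-scanning cytometry, 500–530 nm intensity and object ratio to cell channel. Percent activity normalized to 20 uM Triacsin C.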
# [1] = measured here: lipid fluorescence (Fed channel) AC50, cells fed with added oleic acid
# [2] = measured here: cell number channel AC50, cells fed with added oleic acid
Structure (SMILES),cell number change,AC50 [1],AC50 [2]
Clc1nc2c(ccc3ccccc32)[nH]1,12.1%,–,–
O=C(CSc1nc2ccccc2c(=O)n1Cc1ccc(Cl)cc1)NCc1cccs1,-2.32%,–,–
CCCOC(=O)C(C)Sc1n[nH]c(=O)[nH]c1=O (centres undefined),–,"0.0231 µM [rising, full curve, poor fit]",–
C#CCN1C(=O)C(O)(CC(=O)c2cc(OC)ccc2OC)c2ccccc21 (centres undefined),14.7%,"0.731 µM [rising, full curve]",–
COCCCn1c(Cc2csc(Nc3ccc(F)cc3)n2)nnc1SCC(N)=O,-1.75%,"29.1 µM [rising, single point]",–
CC(C)CNC(C)C(=O)Nc1ccc(S(N)(=O)=O)cc1 (centres undefined),-11.1%,–,–
Nc1ncnc2c1ncn2CCOc1ccccc1,7.54%,"2.06 µM [rising, full curve]",–
CCOC(=O)c1csc(NC(=O)Nc2cccc(Cl)c2)n1,-50%,–,"29.1 µM [falling, single point]"
CC(C)(C)c1ccc(C(=O)OCC(=O)N2CCC(c3ccccc3)=N2)cc1,13%,"29.1 µM [rising, single point]",–
COCCn1nnnc1C(c1ccc(C)cc1)N1CCN(Cc2ccc3c(c2)OCO3)CC1 (centres undefined),-0.908%,–,–
COc1cc(SC)ccc1C(=O)OCC(=O)NCCC1=CCCCC1,-12.2%,"16.4 µM [falling, partial curve]",–
CCCc1nc(N)nc2c1C(=O)CC(C)(C)C2,8.98%,"6.51 µM [rising, single point]",–
O=C(CSc1ccc2c(c1)OCCO2)NCC1CCCO1 (centres undefined),11.2%,–,"0.146 µM [rising, full curve, poor fit]"
C[C@H](NC(=O)c1nc[nH]c1C(=O)NCC(=O)OCc1ccccc1)C(=O)OCc1ccccc1,-1.5%,–,–
COc1ccccc1CCNC(=O)C(=O)c1cn(CC(=O)N2CCCC2)c2ccccc12,-17.3%,"15.8 µM [falling, single point]",–
O=C1NC(=O)C2(COC3(CCCC3)OC2)S1,-36.1%,"2.06 µM [falling, full curve]","0.231 µM [falling, full curve]"
COC(=O)c1[nH]c2cccc(OC)c2c1NC(=O)CN1CC2(C)CC1CC(C)(C)C2 (centres undefined),–,"6.51 µM [falling, partial curve]","6.51 µM [falling, single point]"
Cc1cc(C)nc(SCCCn2c(=O)[nH]c3ccccc32)n1,-30.9%,"0.00411 µM [falling, full curve, poor fit]",–
O=C(CN1CCC(n2nnc3ccccc32)CC1)NCc1cccs1,0.794%,–,–
COc1cc(/C=N/NC(=O)c2ccc(CN(C)S(=O)(=O)c3ccc(C)cc3)cc2)ccc1O,-47.4%,"3.66 µM [falling, full curve]","23.1 µM [falling, single point]"
CCOc1ccc(N=C2NC(=O)CS2)cc1,18.6%,"29.1 µM [rising, single point]",–

# Fetched by structure from the entries so far, 2 records:
Structure (SMILES),cell number change,AC50 [1],AC50 [2]
Cc1cc(C)nc(SCCCn2c(=O)[nH]c3ccccc32)n1,-30.9%,"0.00411 µM [falling, full curve, poor fit]",–
COc1cc(SC)ccc1C(=O)OCC(=O)NCCC1=CCCCC1,-12.2%,"16.4 µM [falling, partial curve]",–

# (list continues)

Structure (SMILES),cell number change,AC50 [1],AC50 [2]
CNC(=O)c1[nH]cnc1C(=O)Nc1ccc(F)cc1,16.9%,"9.2 µM [rising, partial curve, poor fit]",–
CCCCCN(C(=O)NC(=O)NC(C)CC)S(C)(=O)=O (centres undefined),11.2%,–,–
CCOC(=O)c1c(NC(=O)CSc2nc3ccccc3s2)sc(C(C)=O)c1C,-14.5%,"18.4 µM [falling, single point]",–
CC(C)(C)NC(=O)CSc1nncn1NCc1ccccc1,-14.5%,"0.651 µM [falling, full curve, poor fit]","0.82 µM [falling, full curve]"
CC(C)CC(OC(=O)c1ccco1)C(=O)NCC1CCCO1 (centres undefined),-0.204%,"14.6 µM [rising, partial curve, poor fit]",–
O=C(CN1CCC(c2nc3ccccc3s2)CC1)N1CCCCC1,-27.5%,"1.46 µM [falling, partial curve, poor fit]",–
COC(=O)c1ccc2c(c1)N(Cc1nc(-c3cccc(C)c3)oc1C)C(=O)C1CCCN21 (centres undefined),–,"9.2 µM [rising, single point]",–
Cc1ccc(O)c(NC(=O)c2cc(-c3ccccc3Cl)on2)c1,-46.3%,–,"13 µM [falling, partial curve, poor fit]"
Cc1c(C(=O)Nc2ccccn2)oc2ccc(Br)cc12,-1.12%,–,–
CCCCC(=O)Nc1cccc(C(=O)N/N=C/c2ccc(OC)cc2OC)c1,44.5%,"3.26 µM [rising, single point]","7.31 µM [rising, partial curve]"
CCCCn1nnnc1SCC(=O)N1CCN(C(=O)c2ccco2)CC1,-3.57%,"0.259 µM [falling, full curve, poor fit]",–
CC(=O)N1CCN(C(=O)C(Cc2c[nH]c3ccccc23)NC(=O)c2ccccc2Cl)CC1 (centres undefined),24.4%,"16.4 µM [falling, partial curve]",–
CN1CCN(CCC(=O)N/N=C/c2cc([N+](=O)[O-])ccc2OC(F)F)CC1,0.11%,–,"6.51 µM [rising, single point]"
Cc1ccc(NC(=O)c2c(-c3c(F)cccc3Cl)noc2C)cc1F,-17.7%,–,–
COc1ccc(-c2ccc3c(c2)S(=O)(=O)c2cccc(C(=O)NC4CCCCC4)c2C3=O)cc1OC,-11.1%,"16.4 µM [rising, single point]","3.66 µM [falling, single point]"
CCOC(=O)Nc1ccc2c(c1)N(C(=O)N1CCN(C)CC1)c1ccccc1CC2,21.1%,–,–
CCCn1c(NC(=O)c2ccc(Br)cc2)nc2ccccc21,–,"0.291 µM [rising, partial curve, poor fit]","0.411 µM [rising, full curve]"
CC1=NN(C(=O)COc2ccc(C)c(C)c2)C(O)(c2ccc(Cl)cc2)C1 (centres undefined),-8.92%,"1.84 µM [rising, partial curve, poor fit]",–
COCCNC(=S)N1CCCC(CO)C1 (centres undefined),-17.3%,"3.66 µM [falling, single point]",–
Cc1cccc(NC(=O)CCCN2C(=O)c3ccccc3C2=O)n1,-16.8%,"4.61 µM [falling, partial curve, poor fit]",–
N#Cc1ccc(OCC(=O)N2CCN(S(=O)(=O)c3cccc(Cl)c3)CC2)cc1,-29.9%,"18.4 µM [falling, single point]",–

Structure (SMILES),cell number change,AC50 [1],AC50 [2]
CCCCNC(=O)c1ccccc1SCC(=O)NC1CCCCCCC1,25.4%,"0.00731 µM [rising, full curve, poor fit]",–
Cn1c(=O)n(C)c2cc(NC(=O)CSc3nnc(-c4ccccc4O)n3-c3ccccc3)ccc21,–,"0.731 µM [rising, full curve]","1.3 µM [rising, full curve]"
CN(C)C(CNS(=O)(=O)c1ccc2ccccc2c1)c1ccccc1 (centres undefined),7.67%,–,–
Cc1cc(C)nc(SCC(=O)Nc2ccnc3ccccc23)n1,-36.9%,–,–
CCOC(=O)N1CCN(c2c(NCc3ccc(F)cc3)c(=O)c2=O)CC1,8.42%,–,"0.731 µM [rising, partial curve]"
CSc1ccc(CN2CCN(Cc3ccccc3)C(CCO)C2)cc1 (centres undefined),15.9%,"1.03 µM [rising, full curve, poor fit]",–
O=C(CSc1nc2c([nH]c3ccccc32)c(=O)n1-c1ccccc1)N1CCOCC1,–,"2.91 µM [rising, partial curve]","3.26 µM [rising, partial curve]"
COc1cc2c(C#N)c(N3CCOCC3)nc(N)c2c(N)n1,103%,–,"18.4 µM [rising, single point]"
CCN1C(=O)C(CC(=O)Nc2ccc(OC)cc2)N(Cc2ccc3c(c2)OCO3)C1=S (centres undefined),4.77%,"8.2 µM [rising, partial curve]","6.51 µM [rising, single point]"
O=C(Nc1ccc(Cl)c(S(=O)(=O)N2CCOCC2)c1)c1ccc(Cl)nc1,-20.5%,–,–
Cc1c(NS(=O)(=O)c2ccc(Cl)c(C(=O)OC(C)C(=O)N3CCOCC3)c2)c(=O)n(-c2ccccc2)n1C (centres undefined),-39.8%,–,–
Cc1cccc(N=C2NC(=O)/C(=C/C=C/c3ccco3)S2)c1C,-0.151%,"20.6 µM [falling, single point]",–
Nn1c(SCC(=O)Nc2ccc3c(c2)OCO3)nnc1C1CC1,–,"1.84 µM [rising, partial curve]",–
COc1ccc2[nH]c(C)c(CCN(Cc3cccs3)C(=S)Nc3cccc(F)c3)c2c1,–,"0.082 µM [rising, full curve, poor fit]","0.092 µM [rising, full curve, poor fit]"
COC(=O)C(C(=O)OC)C(C[N+](=O)[O-])c1ccc(O)c(OC)c1 (centres undefined),-18.1%,"5.8 µM [falling, full curve, poor fit]",–
CCCCCn1c(=O)[nH]c2cc(C(=O)NCCc3ccc(OC)c(OC)c3)ccc2c1=O,2.91%,"0.146 µM [rising, full curve, poor fit]",–
O=c1oc2ccccc2c(NC(c2ccccc2)c2ccccc2)c1[N+](=O)[O-],-22.2%,"10.3 µM [rising, partial curve]",–
Cc1ccc2cccc(SCC(=O)NCc3ccco3)c2n1,-1.32%,"6.51 µM [rising, single point]","6.51 µM [rising, single point]"
O=C(CSc1nnnn1-c1ccc(O)cc1)NC1CCCCC1,-16.2%,"29.1 µM [falling, single point]",–
CCCCCn1nc(C(=O)OCC(=O)c2c(N)n(C)c(=O)n(C)c2=O)c2ccccc2c1=O,-6.79%,"1.46 µM [falling, partial curve, poor fit]",–
